# In the supplement of paper PMC6411743:
# ± gives the standard deviation of the averaged measurements. Some of the results follow.
# Molecular target: T1, RAB3GAP2 (UniProt Q9H2M9)
# T1 sequence (whole entry): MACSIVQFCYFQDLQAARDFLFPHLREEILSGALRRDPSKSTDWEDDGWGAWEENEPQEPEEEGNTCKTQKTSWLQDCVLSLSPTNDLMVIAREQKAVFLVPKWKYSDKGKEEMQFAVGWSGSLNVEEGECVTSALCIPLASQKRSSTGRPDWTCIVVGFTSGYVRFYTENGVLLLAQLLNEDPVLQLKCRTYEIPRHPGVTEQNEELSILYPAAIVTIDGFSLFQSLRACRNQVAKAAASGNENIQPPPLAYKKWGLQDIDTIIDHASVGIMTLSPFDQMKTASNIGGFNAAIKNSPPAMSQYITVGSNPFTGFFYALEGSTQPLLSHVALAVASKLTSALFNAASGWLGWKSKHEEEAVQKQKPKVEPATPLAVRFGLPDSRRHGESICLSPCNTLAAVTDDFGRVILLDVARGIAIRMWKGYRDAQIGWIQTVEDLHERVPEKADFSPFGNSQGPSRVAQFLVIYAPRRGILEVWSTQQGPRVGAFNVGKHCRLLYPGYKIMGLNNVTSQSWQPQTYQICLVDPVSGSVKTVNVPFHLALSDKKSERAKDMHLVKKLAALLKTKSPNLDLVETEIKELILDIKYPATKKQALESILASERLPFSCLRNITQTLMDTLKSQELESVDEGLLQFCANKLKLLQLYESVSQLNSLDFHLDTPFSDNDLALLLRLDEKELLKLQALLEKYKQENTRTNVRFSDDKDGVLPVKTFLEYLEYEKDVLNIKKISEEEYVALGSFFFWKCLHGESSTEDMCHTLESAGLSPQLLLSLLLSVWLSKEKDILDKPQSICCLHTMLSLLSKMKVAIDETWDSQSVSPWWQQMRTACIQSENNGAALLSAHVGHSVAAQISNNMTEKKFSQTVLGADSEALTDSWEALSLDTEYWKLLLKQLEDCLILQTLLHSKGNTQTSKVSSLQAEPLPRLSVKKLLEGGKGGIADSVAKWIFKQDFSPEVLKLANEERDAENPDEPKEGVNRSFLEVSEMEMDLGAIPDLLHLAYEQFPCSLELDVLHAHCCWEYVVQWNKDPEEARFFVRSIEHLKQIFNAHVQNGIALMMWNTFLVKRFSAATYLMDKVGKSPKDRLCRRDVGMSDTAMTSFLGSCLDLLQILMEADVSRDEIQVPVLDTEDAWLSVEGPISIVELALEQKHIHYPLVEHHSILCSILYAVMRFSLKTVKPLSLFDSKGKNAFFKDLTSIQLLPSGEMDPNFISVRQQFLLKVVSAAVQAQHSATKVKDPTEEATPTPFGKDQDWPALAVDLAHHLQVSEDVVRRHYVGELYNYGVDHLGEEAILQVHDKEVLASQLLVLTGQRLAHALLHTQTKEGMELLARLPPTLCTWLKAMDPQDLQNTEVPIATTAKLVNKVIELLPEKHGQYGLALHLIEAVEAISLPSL
# Experiment: NP40-soluble protein abundance relative to vehicle (solubility fold change) (ratio); higher = more soluble protein in presence of GTP
# Procedure: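 Solubility proteome profiling in Jurkat crude lysate. Lysate was treated with Mg-GTP (0.1-10 mM) for 10 min at room temperature and 3 min at 37 °C, then solubilised with 0.8% NP40 and benzonase, followed by ultracentrifugation. Proteins were quantified by TMT10 LC-MS/MS; the value is the NP40-soluble abundance relative to the NP40-processed vehicle, from 3 independent experiments.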
smiles,measurement,setting,value
Nc1nc2c(ncn2[C@@H]2O[C@H](COP(=O)(O)OP(=O)(O)OP(=O)(O)O)[C@@H](O)[C@H]2O)c(=O)[nH]1 [guanosine triphosphate],NP40-soluble protein abundance,concentration: 0.1mM,1.04 ± 0.053
same,NP40-soluble protein abundance,concentration: 0.5mM,1.04 ± 0.074
same,NP40-soluble protein abundance,concentration: 1mM,0.999 ± 0.052
same,NP40-soluble protein abundance,concentration: 2mM,0.992 ± 0.058
same,NP40-soluble protein abundance,concentration: 4mM,0.982 ± 0.054
same,NP40-soluble protein abundance,concentration: 6mM,0.971 ± 0.051
same,NP40-soluble protein abundance,concentration: 8mM,0.934 ± 0.034
same,NP40-soluble protein abundance,concentration: 10mM,0.931 ± 0.059
